## Library screening results

By UniProt entry, the sequences of proteins in these tests, tags left out.
UniProt E9BF75, entry or part of it: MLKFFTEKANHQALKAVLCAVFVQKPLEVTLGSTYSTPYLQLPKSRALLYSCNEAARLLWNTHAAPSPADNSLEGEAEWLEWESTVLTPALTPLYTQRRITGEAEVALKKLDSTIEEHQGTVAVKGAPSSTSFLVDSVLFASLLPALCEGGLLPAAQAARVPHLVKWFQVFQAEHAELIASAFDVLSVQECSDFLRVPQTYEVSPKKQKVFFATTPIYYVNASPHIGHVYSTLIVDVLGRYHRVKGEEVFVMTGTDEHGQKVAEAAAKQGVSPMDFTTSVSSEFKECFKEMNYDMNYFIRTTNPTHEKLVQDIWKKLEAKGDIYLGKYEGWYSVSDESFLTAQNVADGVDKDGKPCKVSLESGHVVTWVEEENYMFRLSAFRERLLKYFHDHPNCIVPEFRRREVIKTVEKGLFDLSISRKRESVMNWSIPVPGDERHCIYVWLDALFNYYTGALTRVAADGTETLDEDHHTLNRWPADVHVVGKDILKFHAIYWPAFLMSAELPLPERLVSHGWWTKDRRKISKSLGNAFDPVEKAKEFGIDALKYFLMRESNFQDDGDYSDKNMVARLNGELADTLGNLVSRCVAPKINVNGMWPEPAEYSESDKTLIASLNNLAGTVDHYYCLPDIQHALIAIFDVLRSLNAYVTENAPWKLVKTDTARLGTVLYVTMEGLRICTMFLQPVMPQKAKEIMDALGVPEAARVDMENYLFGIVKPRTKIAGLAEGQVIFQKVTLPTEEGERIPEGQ

Data taken from ChEMBL document CHEMBL3988442, “University of Dundee, Small-Polar-MMV Screening Library” (2021).

Results are percentages, as filed.
The controls that fix the scale are not given in the record; negative values are as filed.
This is an unselected part of the compounds tested.

LdMetRS: 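Primary screen of methionyl-tRNA synthetase; the read-out is not stated. Target: Methionyl-tRNA synthetase (putative), Leishmania donovani (UniProt E9BF75). The test concentration is not given. The values are filed as inhibition. Of about 68,000 compounds tested this way, about 24 (0.035%) reached 50% or more in at least one test.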
Mtb heat-shock: 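Assay on Mycobacterium tuberculosis, filed only as a heat shock assay from Cornell; the read-out is not stated. The concentration is filed as 10 mM, unlikely as a test dose, so the dose is not known. The record gives no direction; compounds that gave an IC50 in retests scored well above the rest, so higher reads as stronger inhibition. Size under these conditions: about 69,000 compounds, about 930 of them at 50% or above in at least one test.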

{"smiles": "CS(=O)(=O)N1CCN(CC2CC2)c2ncccc2C1", "LdMetRS": 14.49, "Mtb heat-shock": -5.73}
{"smiles": "Cc1cc(C(=O)N2CCn3c(COCC4CCCC4)cnc3C2C)on1", "stereo": "configuration not stated", "LdMetRS": 6.536, "Mtb heat-shock": -7.321}
{"smiles": "Cc1c(-c2ccncc2)n[nH]c1NC(=O)CCOC(C)C", "LdMetRS": 16.09, "Mtb heat-shock": -1.504}
{"smiles": "CNC(=O)c1cccc(C2CNCCN2C(=O)C2CCNCC2)c1", "stereo": "configuration not stated", "LdMetRS": 12.99, "Mtb heat-shock": -17.64}
{"smiles": "N#Cc1c(CN2CCCC2Cn2cncn2)cn2ccccc12", "stereo": "configuration not stated", "LdMetRS": 14.02, "Mtb heat-shock": 1.823}
{"smiles": "O=C(Cc1ccco1)N1C[C@H]2CCC[C@@]2(COCC2CC2)C1", "LdMetRS": 14.57}
{"smiles": "CCc1nc(CN2CCCN(C(=O)c3cn[nH]c3CC)CC2)cs1", "LdMetRS": 1.84, "Mtb heat-shock": 52.06}
{"smiles": "O=S(=O)(NCC(O)c1ccoc1)c1ccc(Cl)s1", "stereo": "configuration not stated", "LdMetRS": 7.645, "Mtb heat-shock": -4.514}
{"smiles": "O=C(Cn1cccnc1=O)NC(Cc1ccsc1)c1ccccn1", "stereo": "configuration not stated", "LdMetRS": 14.04, "Mtb heat-shock": 17.67}
{"smiles": "CS(=O)(=O)N1CCN(Cc2ccc(F)cc2Br)CC1", "LdMetRS": 17.08, "Mtb heat-shock": -33.95}
{"smiles": "CNS(=O)(=O)c1ccc(CNC(=O)NCc2cc[nH]n2)cc1", "LdMetRS": 15.5, "Mtb heat-shock": 6.367}
{"smiles": "COc1cc(OC)cc(-c2cc(CN)nc3ccnn23)c1", "LdMetRS": 8.495}
{"smiles": "COCC(=O)NC(C)Cc1ccc(Br)cc1", "stereo": "configuration not stated", "LdMetRS": 16.39, "Mtb heat-shock": 38.61}
{"smiles": "O=S(=O)(NCc1ccc(S(=O)(=O)N2CCCC2)s1)c1cc(Cl)ccc1Cl", "LdMetRS": 9.394, "Mtb heat-shock": -4.508}
{"smiles": "O=C(c1cnns1)N1CCN(Cc2ccc(F)cc2Cl)CC1", "LdMetRS": 13.64, "Mtb heat-shock": -7.125}
{"smiles": "Cl.O=C1CC2(CCNCC2)C(=O)N1c1cccc(F)c1", "Mtb heat-shock": -6.229}
{"smiles": "CCCOC1CCCN(Cc2nc(-c3cccs3)oc2C)C1", "stereo": "configuration not stated", "LdMetRS": 10.51, "Mtb heat-shock": 3.688}
{"smiles": "CCCN1CCN(C(=O)CCn2cccc2)CC1", "LdMetRS": 19.83, "Mtb heat-shock": 35.35}
{"smiles": "COC(=O)CN1CCC(C(F)(F)F)CC1", "LdMetRS": 14.02, "Mtb heat-shock": -6.233}
{"smiles": "Cc1cn(-c2ccccc2)nc1NS(=O)(=O)c1cc(C(=O)O)ccc1Cl", "LdMetRS": 1.479, "Mtb heat-shock": -28.34}
{"smiles": "CN(Cc1cc(C2CC2)on1)C(=O)CN1C(=O)OC(C)(C)C1=O", "LdMetRS": 6.529, "Mtb heat-shock": 0.4137}
{"smiles": "CCN1CCN(C(=O)c2c[nH]c(C(C)C)n2)c2ccccc21", "LdMetRS": 10.14, "Mtb heat-shock": -4.657}
{"smiles": "COCCN1CCC(CN(Cc2ccncc2)C2CCC2)CC1", "LdMetRS": -2.481, "Mtb heat-shock": 3.633}
{"smiles": "Cc1cc(C(F)(F)F)nn1CCCNC(=O)C1CCC1", "LdMetRS": 14.42, "Mtb heat-shock": 10.54}
{"smiles": "O=C(Nc1cc(-c2ccccn2)no1)C1CC1", "LdMetRS": 9.774, "Mtb heat-shock": -25.62}
{"smiles": "CN(C)C(=O)CN1CCC(c2cncc(-c3cccc(Cl)c3)n2)CC1", "LdMetRS": 18.12, "Mtb heat-shock": -3.517}
{"smiles": "Cc1nnc(NCc2cccc(OCC3CCCO3)c2)c(C#N)c1C", "stereo": "configuration not stated", "LdMetRS": 4.065, "Mtb heat-shock": -14.48}
{"smiles": "Cc1ccc(CN2CCc3onc(COc4cccnc4)c3C2)s1", "LdMetRS": 15.85}
{"smiles": "CN(C)Cc1cc(=O)n2c(n1)CN(S(=O)(=O)C1CC1)CCC2", "LdMetRS": 15.38}

Repeated from the top, 3 entries:

{"smiles": "CS(=O)(=O)N1CCN(CC2CC2)c2ncccc2C1", "LdMetRS": 14.49, "Mtb heat-shock": -5.73}
{"smiles": "Cc1cc(C(=O)N2CCn3c(COCC4CCCC4)cnc3C2C)on1", "stereo": "configuration not stated", "LdMetRS": 6.536, "Mtb heat-shock": -7.321}
{"smiles": "Cc1c(-c2ccncc2)n[nH]c1NC(=O)CCOC(C)C", "LdMetRS": 16.09, "Mtb heat-shock": -1.504}